Experiments:
benzodiazepine rec. = assay: GABA-Ratio, benzodiazepine receptor binding; conditions: in words
LD50 = assay: LD50; parameters: species or system male mice (NMRI); conditions: mouse, in vivo; oral; ">": no effect up to this highest examined dosage
Protocol: Experimental animals used were male mice (NMRI, origin: Ivanovas, Kissleg) of weight 18 to 25 g. The animals were allowed food and water ad lib.. but, according to the test, they were fasted for two to 16 hours before the beginning of the test with water allowed ad lib.
The substances under test were applied orally by means of a stomach tube in a 0.8% methocel suspension 30 minutes before the start of the test.

## CN1C(=O)CN=C(c2ccccc2)c2cc(Cl)ccc21 [Diazepam, reference compound]
Benzodiazepine rec.
  GABA-Ratio, agonist character: agonist
LD50
  LD50: 700 mg/kg
